Results taken from patent US20120283203A1, “METHODS AND COMPOSITIONS FOR THE TREATMENT OF OBESITY, INSULIN RELATED DISEASES AND HYPERCHOLESTEROLEMIA” (Board of Trustees of Michigan State University, priority 2005, published 2012).
At least one structure is not confirmed: it was looked up by name or label, or the drawing left a doubt.

System: INS-1 832/13 cells
Assay: Insulin secretion by INS-1 832/13 pancreatic beta cells (RIA, normalized to cellular protein)
Type: cell-based, rodent
Settings: 4 and 10 mM glucose, or glucose level not specified
Experimental: Insulin Secretion Studies. INS-1 832/13 cells (kindly provided by Dr Christopher Newgard, Duke University, N.C.) were routinely cultured in 5% CO2/air at 37° C. in RPMI-1640 medium containing 11.1 mM glucose and supplemented with 10% FBS (Fetal Bovine Serum), 10 mM HEPES, 100 U/ml penicillin, […] streptomycin, 4 mM Glutamine, 1 mM sodium pyruvate, and 50 μM 2-mercaptoethanol. Cells were passed weekly after trypsin-EDTA detachment. For static secretion studies, cells were plated on 24 well plates at a density of 0.64×10^6 cells per well and grown for 24 h. The cells were then cultured for an additional 24 h in RPMI-1640 containing 4 mM glucose and the supplements described above. Cells were then incubated twice for 30 min in Krebs Ringer Bicarbonate buffer (KRBB) containing 4 mM glucose and 0.1% BSA. […] Cellular protein concentration was then determined by Lowry assay. […] The insulin secreted into the medium by the cells was determined by radioimmuno assay and normalized to total cellular protein.
Radio Immuno Assay (RIA). […] The tubes were then centrifuged and the radioactivity was measured using a gamma counter.
Lowry protein Assay. The amount of protein in the assay wells was determined by Lowry method. […] The optical density of resulting solutions was read at 700 nm using a UV spectrophotometer.

Compound: COc1cc(-c2[o+]c3cc(O)cc(O)c3cc2O)cc(OC)c1O [malvidin]
- effect on insulin secretion (in words): did not show an increase in insulin secretion
